Values from PubChem BioAssay AID1259308 (NCATS, 2017)

Aim: 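Knock-downs that increase output of a recombinant reporter protein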 (primary screen)
Cell system: human HEK293 embryonic kidney cells stably expressing firefly luciferase (HEK-CMV-Luc2-Hygro)
Reagents: single siRNA against human genes, 0.8 pmol siRNA per well
Duration: 72 h
Measured: 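Reporter luminescence and viable-cell signal on separate replicate plates, given as percent of non-targeting control and median/MAD z-scores, plus per-cell luciferase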
Direction: total luciferase, z-score: higher = more reporter protein produced
Hit rule: 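Active when the median/MAD z-score for overall luciferase is greater than 3; a gene was taken forward for validation with new siRNAs if at least two of its three siRNAs passed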
Meaning of the calls: active = raised luciferase; inactive = no rise
The whole screen tested about 59,000 reagents; this is a part drawn at random. About 1,510 of them (2.6%) count as active. 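Calls use total luciferase alone and ignore viability, so some active siRNAs may act by altering cell number.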 Entries without a mark were called inactive. The numbers tell different reagents against one gene apart. Further read-outs or replicates are left out here.

UBD #1
- total luciferase, z-score: -0.613

UBD #2
- total luciferase, z-score: 0.0827

UBD #3
- total luciferase, z-score: -0.0963

ORAI2 #1
- total luciferase, z-score: 2.85

ORAI2 #2
- total luciferase, z-score: -0.838

ORAI2 #3
- total luciferase, z-score: -0.0158

ZNF619 #1
- total luciferase, z-score: 1.37

ZNF619 #2
- total luciferase, z-score: 0.612

ZNF619 #3
- total luciferase, z-score: -0.571

IFI16 #1
- total luciferase, z-score: 0.703

IFI16 #2
- total luciferase, z-score: 1.09

IFI16 #3
- total luciferase, z-score: -0.555

MGAT4EP #1
- total luciferase, z-score: -0.648

MGAT4EP #2
- total luciferase, z-score: 0.427

MGAT4EP #3
- total luciferase, z-score: 1.44

HPF1 #1
- total luciferase, z-score: 0.208

HPF1 #2
- total luciferase, z-score: -1.05

HPF1 #3
- total luciferase, z-score: 0.408

DNAJC30 #1
- total luciferase, z-score: -1.32

DNAJC30 #2
- total luciferase, z-score: 0.312

DNAJC30 #3
- total luciferase, z-score: -0.274
